Laboratory results published in PubChem BioAssay AID493014 (National Center for Advancing Translational Sciences (NCATS), 2011).
Some of the results follow. Further columns of the screen follow, without active or inactive calls. The list favours compounds with an active or inconclusive main result. Potencies come from curve fits of mixed quality, noted in brackets.

Experiment: qHTS Assay to Find Inhibitors of Chronic Active B-Cell Receptor Signaling
Details: ABC-DLBCL IkBa-CBG/CBR reporter, luminescence ratio (green luciferase fused to IkBa over red control in TMD8 lymphoma cells), 4 h
How it was run: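 Cell line TMD8 (human ABC DLBCL), stably expressing tet-inducible CBG68-IkBa fusion and CBR; IMDM/0.5% FBS; cpd up to 46 uM; dox induction, 4 h, 37C/5% CO2; dual luminescence; green/red ratio; MG132 control.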

[1] = measured here: CBR red luminescence, cell number
[2] = measured here: IkBa-CBG green luminescence

SMILES | AC50 [1] | AC50 [2]
Cc1ccc2nc(NC(=O)C3CSC4(C)CCC(=O)N34)sc2c1 (configuration not stated) | 4.11 µM [falling, partial curve] | –
CC[C@]12c3[nH]c4ccccc4c3CCN1C(=O)C(CC(=O)NCC13CC4CC(CC(C4)C1)C3)C[C@@H]2C(=O)N1CCN(C(=O)c2ccco2)CC1 (some centres not stated) | 23.1 µM [falling, partial curve, poor fit] | –
O=C(c1cc2ccccc2o1)N1CCN(C/C=C/c2ccccc2)CC1 | 12.6 µM [falling, partial curve, poor fit] | –
OCCC1CN(Cc2ccccn2)CCN1C1CCCC1 (configuration not stated) | 0.501 µM [rising, full curve, poor fit] | –
CCCCCC1(C(=O)OCC)CC(CSC(=N)N)OC1=O (configuration not stated) | 35.5 µM [falling, partial curve, poor fit] | –
O=C(OCc1ccc(F)cc1)c1cc(=O)c2ccccc2o1 | 8.91 µM [rising, partial curve, poor fit] | –
COc1ccc(CN(CC2CCC(C(=O)O)CC2)C(=S)Nc2ccc(C)c(Cl)c2)cc1 (configuration not stated) | 10 µM [falling, partial curve, poor fit] | –
CCOC(=O)c1[nH]c2cc(OC)c(OC)cc2c1NC(=O)CN1CCN(c2ccc(OC)cc2)C(C)C1 (configuration not stated) | 0.0366 µM [rising, full curve, poor fit] | –
CC(C)NC(=S)N/N=C1\CCCCC1C1CCCCC1 (configuration not stated) | 16.4 µM [rising, partial curve, poor fit] | –
O=C(CSc1ccc2c(c1)OCCO2)Nc1ncccc1O | 13 µM [falling, partial curve, poor fit] | –
CN1C(=O)c2c(sc3c2CC(C)(C)SC3)N2CCN=C12 | 20 µM [falling, single point] | 11.2 µM [falling, partial curve, poor fit]
CC(=O)Nc1ccc(NC2=Nc3ccccc3N3C2=Nc2c(c(C)nn2-c2ccccc2)C3c2ccccc2)cc1 (configuration not stated) | 0.708 µM [falling, full curve, poor fit] | –
CN1CSC2=C(C#N)C(c3cccc(OCc4ccccc4)c3)CC(=O)N2C1 (configuration not stated) | 35.5 µM [rising, single point] | 35.5 µM [falling, single point]
CCOC(=O)C1CCCN(c2c(NCCCN3CCCC(C)C3)c(=O)c2=O)C1 (configuration not stated) | 29.1 µM [rising, single point] | –
CCc1ccc(C(=O)COC(=O)c2cc([N+](=O)[O-])ccc2NCCO)cc1 | 20.6 µM [rising, single point] | –
O=C(CNC(=O)c1ccc(S(=O)(=O)N2CCCC2)cc1)N/N=C/c1ccccc1Cl | 8.2 µM [rising, partial curve, poor fit] | –
O=C(COC(=O)c1c(F)cccc1Cl)NC(=O)Nc1ccc2c(c1)OCCO2 | 20.6 µM [rising, single point] | –
CC(=O)Nc1nc2ccc(S(=O)(=O)N3CCCCC3)cc2s1 | 3.98 µM [rising, partial curve, poor fit] | –
C=C(C)CNC(=S)N/N=C1\CCCCc2ccccc21 | 18.4 µM [rising, partial curve] | 18.4 µM [falling, partial curve, poor fit]
O=C(Nc1cccc2cccnc12)c1cccc2ccccc12 | 29.1 µM [rising, single point] | –

Exported tab-delimited: part of the list above.
SMILES	AC50 [1]	AC50 [2]
O=C(CSc1ccc2c(c1)OCCO2)Nc1ncccc1O	13 µM [falling, partial curve, poor fit]	–
CN1C(=O)c2c(sc3c2CC(C)(C)SC3)N2CCN=C12	20 µM [falling, single point]	11.2 µM [falling, partial curve, poor fit]
CCOC(=O)C1CCCN(c2c(NCCCN3CCCC(C)C3)c(=O)c2=O)C1 (configuration not stated)	29.1 µM [rising, single point]	–

Next compounds.

SMILES | AC50 [1] | AC50 [2]
S=C(Nc1ccccc1)Nc1nccs1 | 22.4 µM [falling, partial curve, poor fit] | 12.6 µM [falling, partial curve]
O=C(NCCN1Cc2ccccc2C1=O)c1cccs1 | 5.17 µM [falling, full curve] | –
O=C(O)COc1ccccc1/C=N/NC(=O)c1cc2ccccc2cc1O | 20 µM [falling, single point] | –
CCc1ccccc1NC(=O)CN1CCN(C(=O)c2ccc(OCc3cn4ccccc4n3)cc2)CC1 | 0.103 µM [rising, full curve, poor fit] | –
CC(=C/c1ccco1)/C=N/NC(=O)c1ccncc1 | 10 µM [falling, partial curve, poor fit] | –
COc1ccc(C(=O)COC(=O)c2ccccn2)c(OC)c1 | 18.4 µM [rising, partial curve, poor fit] | –
COC(=O)c1ccc(C2c3c(oc4ccc(Cl)cc4c3=O)C(=O)N2CCN2CCOCC2)cc1 (configuration not stated) | 11.2 µM [falling, partial curve] | –
COc1ccc(/C=C(\C#N)c2c[nH]c3ccccc23)cc1 | 15.8 µM [rising, partial curve] | 15.8 µM [falling, partial curve]
O=C(C1CCN(C2CCN(Cc3cccc4c3OCO4)CC2)CC1)N1CCOCC1 | 7.94 µM [rising, partial curve, poor fit] | –
CCCOC(=O)c1ccc(NC(=O)c2cnccn2)cc1 | 0.224 µM [rising, full curve, poor fit] | –
COc1ccc(-c2nnc(SCC(=O)Nc3cccnc3Cl)n2C)cc1 | 7.31 µM [rising, partial curve, poor fit] | –
CCOc1ccc(-c2noc(CCCC(N)=O)n2)cc1OC | 9.2 µM [falling, partial curve] | –
COc1ccc(/C=N/Nc2nnc(Cc3ccccc3)c(=O)[nH]2)cc1OC | 0.112 µM [rising, full curve, poor fit] | –
CCN(CC)C(=O)COc1ccc2oc(-c3ccco3)cc(=O)c2c1 | 1.78 µM [falling, partial curve, poor fit] | –
CC(Oc1ccccc1)C(=O)Nc1cccc(-c2nc3ccccc3[nH]2)c1 (configuration not stated) | 1.26 µM [falling, full curve] | –
Cc1[nH]n(-c2ccccc2)c(=O)c1/C=N/N1C(=O)c2cccc3cccc(c23)C1=O | 35.5 µM [rising, partial curve, poor fit] | 35.5 µM [falling, single point]
O=C1CCCC(=O)C1=Cc1c[nH]c2ccccc12 | 2.59 µM [falling, full curve, poor fit] | –
Cc1sc2nc(CN3CCCCC3)nc(N3CCN(C(=O)c4ccco4)CC3)c2c1C | 35.5 µM [falling, single point] | –
O=C(N/N=C/c1ccc(N2CCOCC2)cc1)c1ccccn1 | 35.5 µM [falling, single point] | –
Cc1ccc(S(=O)(=O)CNC(=S)c2ccc3ccccc3c2)cc1 | – | 20.6 µM [falling, single point]

SMILES | AC50 [1] | AC50 [2]
COc1cccc(/C(O)=C2/C(=O)C(=O)N(c3ccccn3)C2c2ccc(OC)c(OC)c2)c1 (configuration not stated) | 4.47 µM [falling, partial curve, poor fit] | –
Nc1ccccc1O | 1.64 µM [falling, full curve] | –
CCOc1ccc(NC(=O)Nc2ccccc2SC)cc1 | 7.08 µM [falling, partial curve, poor fit] | –
CCOC(=O)c1c[nH]c2c(C(=O)c3ccccc3)cc(Cl)cc2c1=O | 0.794 µM [rising, full curve, poor fit] | –
COCCNC(=O)COc1ccc(Br)cc1Cl | 23.1 µM [rising, single point] | –
CCN1CCN(Cc2ccc(NC(=O)c3ccc(C)c(NC(=O)c4ccno4)c3)cc2C(F)(F)F)CC1 | 0.562 µM [falling, full curve] | –
c1cncc(-c2noc(C34CC5CC(CC(C5)C3)C4)n2)c1 | 1.46 µM [falling, partial curve] | –
CC1Oc2ccccc2N(CC(=O)Nc2ccccc2F)C1=O (configuration not stated) | 0.708 µM [rising, full curve, poor fit] | –
CC1CCCCC12NC(=O)N(CC(=O)N1CCN(C(=O)c3ccco3)CC1)C2=O (configuration not stated) | 29.1 µM [rising, single point] | –
Oc1ccccc1/C=N/Nc1nc2ccccc2o1 | 7.08 µM [falling, partial curve, poor fit] | –
CCn1c(Cn2nnc(-c3ccccc3)n2)nnc1SCc1ccc(Cl)c(Cl)c1 | 2.06 µM [falling, single point] | –
Cc1cc(=O)n(CCCc2ccccc2)[nH]1 | – | 23.1 µM [falling, partial curve, poor fit]
O=C(O)c1ccccc1N=Nc1c(O)[nH]c2ccc([N+](=O)[O-])cc12 | 8.91 µM [falling, partial curve, poor fit] | –
CCN(CC)S(=O)(=O)c1ccc2oc(Nc3ccc(OC)cc3OC)nc2c1 | 10 µM [rising, partial curve, poor fit] | –
C[C@H](CO)N1C[C@H](C)[C@@H](CN(C)Cc2ccc(Cl)c(Cl)c2)Oc2c(NS(=O)(=O)c3cccs3)cccc2C1=O | 23.1 µM [falling, partial curve, poor fit] | –
COc1cccc(Nc2nc(NCCO)c3ccccc3n2)c1 | – | 4.11 µM [rising, partial curve, poor fit]
Oc1ccc(/C=N/Nc2nccnc2Cl)cc1 | 9.2 µM [falling, partial curve] | 11.6 µM [rising, partial curve, poor fit]
CCCN(Cc1cc2ccc(C)cc2[nH]c1=O)S(=O)(=O)c1ccccc1 | 0.259 µM [falling, full curve] | –
Cc1ccc(NC(=O)c2cc(S(=O)(=O)N3CCCc4ccccc43)ccc2F)cc1F | 11.2 µM [falling, partial curve, poor fit] | –
CCN(Cc1ccncc1)C(=S)Nc1ccc(Cl)cc1 | 12.6 µM [rising, single point] | –
